No constants are given. Whether binding was seen depends on the method and setting. For part of these data: Binding seen in cells or lysates may run through a third protein. Some results given as binding are weak or reduced against the parent protein; the word gives no strength. For part of these data: Sequences can lack the tags named with a protein.
Experiments:
[1] = molecular target: T1, V5-tagged Mei-P26 (Drosophila) (UniProt M9PH32); assay: co-IP; epitope tagged transgenes expressed in S2 cells; V5-tagged Mei-P26 immunoprecipitated, Myc-tagged Bgcn detected
T1 sequence: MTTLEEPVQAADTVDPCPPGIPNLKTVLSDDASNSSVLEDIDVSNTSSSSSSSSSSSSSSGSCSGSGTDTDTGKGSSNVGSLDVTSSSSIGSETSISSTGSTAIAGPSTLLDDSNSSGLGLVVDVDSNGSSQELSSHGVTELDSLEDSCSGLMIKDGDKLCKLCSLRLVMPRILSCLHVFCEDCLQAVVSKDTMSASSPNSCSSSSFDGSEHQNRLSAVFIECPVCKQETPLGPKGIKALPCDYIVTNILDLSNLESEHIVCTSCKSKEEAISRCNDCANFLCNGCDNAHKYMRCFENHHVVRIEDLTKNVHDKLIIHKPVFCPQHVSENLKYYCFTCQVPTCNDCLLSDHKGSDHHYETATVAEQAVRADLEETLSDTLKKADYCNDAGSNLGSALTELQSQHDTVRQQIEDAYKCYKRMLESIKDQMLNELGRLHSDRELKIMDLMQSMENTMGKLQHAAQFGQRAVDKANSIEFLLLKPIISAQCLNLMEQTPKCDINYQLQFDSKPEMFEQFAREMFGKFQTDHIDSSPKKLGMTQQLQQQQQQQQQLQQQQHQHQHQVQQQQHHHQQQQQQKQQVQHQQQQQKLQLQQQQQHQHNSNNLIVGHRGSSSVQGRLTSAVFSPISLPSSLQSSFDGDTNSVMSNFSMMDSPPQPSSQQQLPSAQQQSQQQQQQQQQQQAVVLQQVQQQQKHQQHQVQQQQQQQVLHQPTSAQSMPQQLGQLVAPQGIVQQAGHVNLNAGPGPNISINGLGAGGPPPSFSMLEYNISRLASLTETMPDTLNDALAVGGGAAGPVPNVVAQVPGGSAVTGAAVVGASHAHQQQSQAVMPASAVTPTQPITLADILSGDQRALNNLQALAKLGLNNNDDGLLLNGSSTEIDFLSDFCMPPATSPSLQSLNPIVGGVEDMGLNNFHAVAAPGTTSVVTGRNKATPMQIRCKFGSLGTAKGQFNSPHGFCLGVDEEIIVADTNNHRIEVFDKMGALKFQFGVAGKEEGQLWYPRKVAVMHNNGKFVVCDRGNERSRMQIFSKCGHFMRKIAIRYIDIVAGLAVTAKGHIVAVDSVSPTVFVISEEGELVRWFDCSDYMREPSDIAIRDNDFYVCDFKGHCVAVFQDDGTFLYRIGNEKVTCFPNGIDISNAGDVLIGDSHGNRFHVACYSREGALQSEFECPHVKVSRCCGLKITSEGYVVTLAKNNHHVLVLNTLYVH

[2] = molecular target: T2, Bgcn yeast two-hybrid construct (Drosophila) (UniProt Q9W1I2); assay: two-hybrid; LexA-based yeast two-hybrid, beta-galactosidase assay; pEG202 or pJG4.5 vectors
T2 sequence: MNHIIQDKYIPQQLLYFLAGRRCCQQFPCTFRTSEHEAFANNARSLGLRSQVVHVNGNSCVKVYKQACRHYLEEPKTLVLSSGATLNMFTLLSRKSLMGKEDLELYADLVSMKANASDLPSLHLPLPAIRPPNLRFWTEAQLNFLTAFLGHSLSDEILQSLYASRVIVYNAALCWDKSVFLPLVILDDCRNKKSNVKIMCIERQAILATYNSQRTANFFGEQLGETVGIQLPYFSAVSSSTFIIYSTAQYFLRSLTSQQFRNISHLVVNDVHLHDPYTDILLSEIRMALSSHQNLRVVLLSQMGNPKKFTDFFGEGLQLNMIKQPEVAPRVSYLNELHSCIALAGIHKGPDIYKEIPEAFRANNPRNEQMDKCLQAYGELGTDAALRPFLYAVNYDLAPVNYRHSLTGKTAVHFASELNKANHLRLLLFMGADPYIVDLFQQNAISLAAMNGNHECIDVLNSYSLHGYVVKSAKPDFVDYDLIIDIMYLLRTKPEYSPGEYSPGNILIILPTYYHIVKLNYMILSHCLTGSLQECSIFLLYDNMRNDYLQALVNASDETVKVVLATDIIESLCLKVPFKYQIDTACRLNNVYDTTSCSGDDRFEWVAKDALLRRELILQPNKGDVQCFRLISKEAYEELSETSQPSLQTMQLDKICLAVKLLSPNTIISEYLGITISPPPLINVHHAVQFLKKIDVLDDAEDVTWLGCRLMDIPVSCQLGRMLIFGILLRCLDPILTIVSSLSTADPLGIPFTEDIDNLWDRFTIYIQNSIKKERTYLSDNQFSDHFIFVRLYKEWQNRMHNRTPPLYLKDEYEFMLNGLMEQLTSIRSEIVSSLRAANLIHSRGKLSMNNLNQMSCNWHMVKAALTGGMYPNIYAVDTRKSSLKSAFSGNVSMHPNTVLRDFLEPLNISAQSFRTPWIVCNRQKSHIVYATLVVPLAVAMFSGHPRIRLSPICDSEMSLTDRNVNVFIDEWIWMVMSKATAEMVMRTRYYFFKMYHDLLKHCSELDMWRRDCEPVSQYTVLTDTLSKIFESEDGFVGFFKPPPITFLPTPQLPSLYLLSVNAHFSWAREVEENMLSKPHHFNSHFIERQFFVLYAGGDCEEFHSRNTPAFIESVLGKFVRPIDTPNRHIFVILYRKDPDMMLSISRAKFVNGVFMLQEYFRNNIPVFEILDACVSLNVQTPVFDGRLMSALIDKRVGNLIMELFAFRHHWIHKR

[3] = molecular target: Mei-P26 yeast two-hybrid construct (Drosophila) (UniProt M9PH32); assay: as above

B1: Myc-tagged Bgcn (protein, UniProt Q9W1I2 1-1215)
chain: T2 sequence
With B1 the binding [1] was “binds”.

B2: Bam yeast two-hybrid construct (protein, UniProt P22745 1-442)
chain: MLNARDVCPEGNDDQQLDHNFKQMEEHLALMVEGNENEDPRKATCEYEDTNEDGATCTSGVLSEIQENFGRLRLCDVTAPLLEFHGLDCLQQIQKRSRHFAFDGSPAKKSRSGGVLVTGPKQKQLQKENVWNRKSKGSASADNIEKLPITIEKLHMIGLHGDCLEHNAVLRLMNLFRSLHDHLTADLGFSRQNSMPSDYLFDMPVKSTMPKSLNVRYQLQVLCTKVERFLVQQRRTLEANRHFDFEKYDECDKLLKGFASYLDNFKLLLKPKMRNRNGNSGSNADKFHTQRMERLLIGLRDWIKAAHLSVHVFNWEMDLEHRYSGAMTESHKSLNERAILLSGAELRAAEARGISAEDLFIAQRYKLGGPIYCVLEQHEFLSALIANPETYFPPSVVAICGPQKLGAVSMEQPSASEEEFEETEEVPSSPPRHTGRVPRFRS
B2 was tested, and the binding [2] was “binds”.

B3: Bgcn yeast two-hybrid construct (protein, UniProt Q9W1I2 1-1215)
chain: T2 sequence
For B3, the binding [3] was “binds”.

Source: PMC3603962
